# Reference: PubChem BioAssay AID2551 (National Center for Advancing Translational Sciences (NCATS), 2010)
# Protein sequences, listed by entry. Tags and fused reporters are not part of them. Lines headed by an entry give the natural chain unless they say otherwise; changes in a name come on top.
# UniProt P51450: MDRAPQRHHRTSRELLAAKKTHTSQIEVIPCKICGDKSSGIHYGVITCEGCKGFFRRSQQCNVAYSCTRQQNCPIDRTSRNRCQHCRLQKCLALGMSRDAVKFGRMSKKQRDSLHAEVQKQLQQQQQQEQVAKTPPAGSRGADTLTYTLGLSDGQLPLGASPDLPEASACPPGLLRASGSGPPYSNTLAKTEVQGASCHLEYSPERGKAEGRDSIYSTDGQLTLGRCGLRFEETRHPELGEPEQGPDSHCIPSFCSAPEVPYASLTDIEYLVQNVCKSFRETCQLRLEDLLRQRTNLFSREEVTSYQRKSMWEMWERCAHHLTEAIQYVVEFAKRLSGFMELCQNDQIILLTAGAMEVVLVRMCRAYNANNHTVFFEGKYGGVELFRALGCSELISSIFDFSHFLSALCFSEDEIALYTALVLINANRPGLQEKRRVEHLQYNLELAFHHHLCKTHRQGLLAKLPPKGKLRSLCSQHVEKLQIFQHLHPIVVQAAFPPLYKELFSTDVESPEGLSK
# Values joined by “and” are separate entries in the source; they are usually repeats but may differ in a detail not shown here. Equal entries are not always repeated. The whole screen tested about 310,000 compounds, of which about 17,000 (5.5%) were called active. The inconclusive results got no clear call from the source; some entries with a clear call stand among them for comparison. The call rests on the fitted dose curve; in most records, active means well fitted inhibition curve with a large enough effect; inconclusive means small, poorly fitted or top-dose-only effect, or effect the other way; inactive means no such curve, though single readings can be large or run the other way. Potencies of inconclusive entries are doubtful fits and often do not repeat. More than one record can exist for a structure, and the calls need not agree.
# Biological target: Nuclear receptor ROR-gamma (Mus musculus) (UniProt P51450)
# Experiment: qHTS for inhibitors of ROR gamma transcriptional activity; further: nearly all actives have a fitted effect of over 60% in size
# Settings: Drosophila S2 Gal4-RORgamma UAS-luciferase reporter, 20 h; activity change, negative = inhibition: at 53.6 µM (top of the series)
# Procedure, shortened: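 Schneider cells (Drosophila), stable Gal4 DBD–ROR gamma + UAS-luc; 1 hr cmpd preincubation; Cu2+ induction 700 uM final; 20 hr ambient; luminescence.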
# On the % scale 0 is the no-effect control and ±100 the full control effect; potency means the concentration at half of the fitted maximal effect.
SMILES,"activity change, negative = inhibition",Potency
CCOC(=O)Cc1csc(NC(=O)CSC2=NCCS2)n1,inactive: 30.1%,–
O=C(O)c1cccc(NC(=O)c2ccc3c(c2)C(=O)N(C2CCCCC2)C3=O)c1,–,"inconclusive: 0.708 µM [activator, single point]"
S=C1NCCc2ccccc2C1c1ccccc1Cl (stereo unspecified),–,active: 7.94 µM
COC(=O)c1cc(=O)n(Cc2ccco2)c(=Nc2ccc(F)c(Cl)c2)s1,–,"inconclusive: 12.6 µM [inhibitor, partial curve, poor fit]"
Cc1ccc(/C=N/NC(=O)c2c(-c3ccccc3)noc2C)c(O)c1,–,active: 3.16 µM
CC1CC(C)CN(C(=O)C2CC(=O)N(c3ccc(F)cc3)C2)C1 (stereo unspecified),inactive: -8.45%,–
O=C(Cn1c(S(=O)(=O)Cc2ccccc2)nc2ccccc21)N1CCCCC1,inactive: -3.01%,–
COc1ccc(C(=O)N/N=C/c2ccc(OC)c(COc3c(F)c(F)cc(F)c3F)c2)cc1,–,"inconclusive: 12.6 µM [inhibitor, single point]"
N#C/C(=C(/O)CN1CCN(c2ccccc2F)CC1)c1nc(-c2ccc(Cl)cc2)cs1,–,"inconclusive: 35.5 µM [inhibitor, single point]"
O=C(O)CCSc1nnc(COc2ccc([N+](=O)[O-])cc2)n1-c1ccccc1,inactive: -18.9%,–
N=c1c2c3c(sc2ncn1Nc1ccccc1)CCC3,–,"inconclusive: 35.5 µM [inhibitor, single point]"
CC(C)C(=O)N(c1ccc(F)cc1)C1C=CS(=O)(=O)C1 (stereo unspecified),inactive: -18.6%,–
CCOc1cccc(OCCCCn2cnc3ccccc3c2=O)c1,inactive: 31.4%,–
CN(C(=S)Nc1ccc(SC(F)F)cc1)C(c1ccccc1)c1ccccc1,–,"inconclusive: 14.1 µM [inhibitor, partial curve, poor fit]"
O=C(Cc1ccccc1F)OCC(=O)N1CCc2ccccc21,–,"inconclusive: 6.31 µM [inhibitor, single point]"
O=C(Cc1cccs1)NCc1cccc(C(F)(F)F)c1,–,"inconclusive: 10 µM [activator, partial curve]"
COCC(=O)Nc1c(C(=O)Nc2ccc3c(c2)OCCO3)oc2ccccc12,–,"inconclusive: 0.282 µM [activator, full curve, poor fit]"
CCOC(=O)N1CCC(NC(=O)c2ccc3c(c2)N=C(CC)c2ccccc2S3)CC1,–,"inconclusive: 10 µM [activator, partial curve, poor fit]"
CCN(CC)C(=O)C1CCN(S(=O)(=O)c2c(C)noc2/C=C/c2cccc(C)c2)CC1,inactive: 25%,–
Nc1c(C(=O)c2ccc(Cl)cc2)sc2c1c(=O)[nH]c(=O)n2-c1ccccc1,–,"inconclusive: 11.2 µM [activator, single point]"
CCOc1cc(C=O)cc(N=Nc2cccc([N+](=O)[O-])c2)c1O,–,"inconclusive: 35.5 µM [inhibitor, single point]"
NC(=S)N/N=C/c1ccc2ccccc2c1,–,"inconclusive: 0.708 µM [inhibitor, single point]"
Nn1c(SCC(=O)N2CCN(S(=O)(=O)c3ccc(Cl)cc3)CC2)nnc1-c1cccs1,–,"inconclusive: 20 µM [activator, single point]"
CCOC(=O)C1(CCOc2ccccc2)CCN(Cc2ccc(C#CCCO)cc2)CC1,–,"inconclusive: 35.5 µM [activator, single point]"

# A few values from the results shown.
# Value for O=C(Cc1ccccc1F)OCC(=O)N1CCc2ccccc21 under Potency: inconclusive: 6.31 µM [inhibitor, single point]
# Value for Cc1ccc(/C=N/NC(=O)c2c(-c3ccccc3)noc2C)c(O)c1 under Potency: active: 3.16 µM
# Value for CCOc1cccc(OCCCCn2cnc3ccccc3c2=O)c1 under activity change, negative = inhibition: inactive: 31.4%

# More results

SMILES,"activity change, negative = inhibition",Potency
CC1CCCCC1NC(=O)c1ccc(CSc2nc3ccncc3[nH]2)cc1 (stereo unspecified),–,"inconclusive: 5.01 µM [activator, partial curve, poor fit]"
CCn1c(-c2cccc(Cl)c2)n[nH]c1=S,–,active: 6.31 µM
COc1ccc(C2c3sc(=O)[nH]c3SC3C4CCC(C4)C23)cc1OC (stereo unspecified),inactive: -9.24%,–
CC(C(=O)NCC1CCCO1)N(C(=O)c1snc(C(N)=O)c1N)c1ccccc1 (stereo unspecified),inactive: 6.69%,–
CCN(CC(=O)Nc1ccc2c(c1)OCCO2)C(=O)/C=C/c1ccccc1,–,"inconclusive: 11.2 µM [activator, partial curve, poor fit]"
Cc1cc(NC(=O)C2CC2)n(-c2nc3ccccc3s2)n1,–,"inconclusive: 12.6 µM [inhibitor, single point]"
Cc1cccc(CC(=O)Nc2sc(C(C)C)cc2C(=O)N2CCOCC2)c1,–,"inconclusive: 17.8 µM [activator, partial curve, poor fit]"
CCOC(=O)C1CCN(C(=S)Nc2ccc(CC)cc2)CC1,–,active: 11.2 µM
Cn1c(=O)c2cc(S(=O)(=O)NC(Cc3ccccc3)C(=O)NCc3ccco3)ccc2n(C)c1=O (stereo unspecified),–,"inconclusive: 5.01 µM [inhibitor, full curve, poor fit]"
Cc1cc(C)cc(NS(=O)(=O)c2ccc3[nH]cc(C(=O)N4CCc5ccccc54)c(=O)c3c2)c1,–,"inconclusive: 17.8 µM [activator, single point]"
COc1ccc(C(=O)N2CCN(c3ccc(C)cc3C)CC2)cc1OC,inactive: -12.5%,–
CCCCn1c(-c2csc(CC)c2)n[nH]c1=S,–,active: 0.794 µM
COc1ccc(N(C)S(=O)(=O)c2cccc(C(=O)NCC3CCCCC3)c2)cc1,inactive: 17%,–
COc1ccc(CCC(C)Nc2ccccc2F)cc1 (stereo unspecified),–,"inconclusive: 17.8 µM [activator, partial curve]"
COc1cc(C(=O)NC(=S)Nc2ccccc2[N+](=O)[O-])cc(OC)c1OC,–,active: 5.62 µM
O=C(CC(SCCO)c1ccc(F)cc1)c1ccco1 (stereo unspecified),–,"inconclusive: 25.1 µM [inhibitor, single point]"
CC(C)(C)c1ccc(C(=O)Nc2nnc(Cc3c[nH]c4ccccc34)s2)cc1,–,"inconclusive: 31.6 µM [activator, single point]"
CCNC(=S)Nc1cccc(S(=O)(=O)Nc2ccccc2OC)c1,–,"inconclusive: 17.8 µM [activator, single point]"
Cc1cc(C)cc(NC(=S)NCc2cccn2C)c1,–,active: 2.82 µM
Cc1cc(NC(=O)COC(=O)c2ccccc2S(=O)(=O)N(C)c2ccccc2)no1,inactive: 3.15%,–
CCCc1nnc(NC(=O)CCC(=O)NC2CCCC2)s1,inactive: -10.7%,–
CCN(CC)S(=O)(=O)c1cccc(C(=O)N[C@H](C(=O)Nc2nc3ccc(F)cc3s2)C(C)C)c1,–,"inconclusive: 4.47 µM [activator, partial curve, poor fit]"
COC(=O)c1ccc(Cl)cc1NC(=O)/C=C/c1ccc(C)o1,–,"inconclusive: 35.5 µM [inhibitor, single point]"
CCn1c(CNc2ccc(C(=O)O)cc2)nc2ccccc21,–,active: 10 µM

SMILES,"activity change, negative = inhibition",Potency
Cc1ccnc2nc(C(=O)Nc3nc(-c4ccccn4)cs3)nn12,–,"inconclusive: 14.1 µM [inhibitor, single point]"
CCN(CC)C(=O)c1csc(Nc2ccc(C)cc2)n1,–,"inconclusive: 25.1 µM [inhibitor, single point]"
CCOC(=O)N1CCN(C(=O)c2ccc3c(=O)n(CCc4ccccc4)c(=S)[nH]c3c2)CC1,–,active: 7.08 µM
COc1cccc(/C=N/n2c(C3CCCCC3)n[nH]c2=S)c1OC,–,active: 3.16 µM
O=C(N/N=C/c1cc2c3c(c1O)CCCN3CCC2)c1ccccc1O,–,"inconclusive: 22.4 µM [inhibitor, single point]"
O=C1OCCC1Sc1nc2cc(Cl)ccc2n1Cc1ccccc1 (stereo unspecified),–,active: 12.6 µM
Cc1noc(/C=C/c2nn(C)cc2Cl)c1[N+](=O)[O-],–,"inconclusive: 20 µM [inhibitor, single point]"
NS(=O)(=O)c1ccc(NC(=S)N2CCC(Cc3ccccc3)CC2)cc1,–,"inconclusive: 3.55 µM [activator, partial curve]"
CCOCCCNC(=S)NCCNc1nc2ccc(C)cc2cc1C#N,–,"inconclusive: 35.5 µM [activator, single point]"
O=C(c1ccco1)N1CCN(c2ncnc3c2nnn3Cc2ccccc2Cl)CC1,–,"inconclusive: 10 µM [activator, single point]"
CC(=O)NNS(=O)(=O)c1ccc(-c2cc(C(F)(F)F)n(C)n2)s1,–,"inconclusive: 3.55 µM [inhibitor, single point]"
Cc1cc2c(SCC(=O)NC3CCCCC3)ncnc2s1,inactive: -22.1%,–
COCCNC(=O)c1c(CSc2ccc(F)cc2)noc1C(=O)NCc1ccccc1,–,"inconclusive: 11.2 µM [activator, partial curve, poor fit]"
COc1cccc(-c2cc(C(=O)Nc3cccc(O)c3)no2)c1,–,active: 0.891 µM
CC(C)(C)c1ccc(/C=C/C(=O)Nc2ncccn2)cc1,–,"inconclusive: 1.12 µM [activator, full curve, poor fit]"
Cc1cc[n+](C(C)C(=O)c2ccc(-c3ccccc3)cc2)cc1 (stereo unspecified),–,"inconclusive: 31.6 µM [inhibitor, single point]"
C=C1/C(=C\C=C2/CCC[C@]3(C)[C@@H]([C@H](C)CCCC(C)(C)O)CC[C@@H]23)C[C@@H](O)C[C@@H]1O,–,inactive and active: 10 µM
Cc1ccc(S(=O)(=O)c2nc(-c3ccccc3)oc2SCC(=O)NCC2CCCO2)cc1 (stereo unspecified),–,"inconclusive: 15.8 µM [inhibitor, single point]"
Nc1[nH]c(N=NC(=O)c2ccc(F)cc2)c2ccccc12,–,active: 3.55 µM
Cn1ccnc1SCC(=O)c1ccc(Br)cc1,–,"inconclusive: 12.6 µM [inhibitor, single point]"
CCOC(=O)C1CCN(S(=O)(=O)c2cccc(-c3cn4cc(Cl)ccc4n3)c2)CC1,inactive: 26.5%,–
O=C(NCCc1ccc(Cl)cc1)c1ccc(CS(=O)Cc2ccccc2Cl)o1 (stereo unspecified),–,"inconclusive: 25.1 µM [activator, single point]"
CCOCCCn1c(=S)[nH]c2cc(C(=O)NC3CCCC(C)C3C)ccc2c1=O (stereo unspecified),–,"inconclusive: 7.08 µM [inhibitor, full curve, poor fit]"
